Several values for one entry are separate records, joined by “and”; a condition that tells them apart may be missing. Identical values can stand only once. Among all 350,000 compounds or so, about 6,000 (1.7%) were called active. Inconclusive means that the source gave no clear call. Such entries were picked first, then a sample of the others. No stated cut-off is given here; in the data, active means CPE inhibition above about 20% (passing the limit was not always enough); inconclusive means no clear call, values can overlap the other calls; tested in BHK-21 cells. The source holds several records for some structures; these can differ, active in one and inactive in another.
assay: protection of cells from dengue 2 killing – plate reader, single concentration, primary screen (AID 651640); conditions: DENV2-infected cells, cytopathic effect rescue, at 9.99 µM, stronger effect = higher value;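 further: 0% = median of neutral control wells and 100% = median of positive control wells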

Structure (SMILES) | CPE inhibition
O=C(O)C1CCCCC1C(=O)Nc1ccc(S(=O)(=O)N2CCCC2)cc1 (stereo unspecified) | inactive: 1.77%
Cc1ccc(-c2[nH]c3ccccc3c2SCCN)cc1 | inconclusive: 25.6%
CCOC(=O)C1=C[C@@H](C(C)(C)C)N(S(=O)(=O)c2ccc([N+](=O)[O-])cc2)[C@H]1c1ccccc1 | inconclusive: 26.5%
COCc1c(C(=O)NCC2COc3ccccc3O2)oc2ccccc12 (stereo unspecified) | inconclusive: 21.4%
CC(C)CC#Cc1ccc([C@@H]2[C@H](CO)N3CCCCN(S(=O)(=O)Cc4ccccc4)C[C@@H]23)cc1 | active: 23.2%
O=C(OCc1ccccc1)N1CCC2CC1c1ccc(-c3ccc4c(c3)OCO4)cc12 (stereo unspecified) | active: 59.5%
CCN(CC(=O)NC(C)(C)C)C(=O)c1ccccc1SCC(=O)NC1CCCCCCC1 | inconclusive: 23.5%
C[C@@H](NC(=O)C[C@H]1CC[C@H]2[C@@H](COC[C@@H](O)CN2Cc2ccc(C(F)(F)F)cc2)O1)c1ccccc1 | inactive: -1.18%
Cc1cn(CC(=O)NCCCN2CCCC2=O)c(=O)[nH]c1=O | inconclusive: 50.2%
CC(C)NC(=O)N1[C@H](CO)[C@@H](c2ccccc2)[C@@H]1CN(C)C(=O)c1ccncc1 | inactive: 1.79%
C[C@@H]1CN([C@@H](C)CO)C(=O)Cc2cc(NC(=O)CCN3CCOCC3)ccc2O[C@@H]1CN(C)Cc1ccccc1 | inactive: -2.3%
O=C(Nc1ccccc1F)N1C[C@H]2[C@@H](c3ccccc31)[C@@H](CO)N2C(=O)C1CCCC1 | inactive: -2.89%
Cc1cccc(S(=O)(=O)NCCNS(=O)(=O)c2cccc(C)c2)c1 | inconclusive: 21.9%
CCC(=O)N(CCc1ccc(S(N)(=O)=O)cc1)C1CC(=O)N(c2ccc(OC)cc2)C1=O (stereo unspecified) | inconclusive: 23.6%
Cc1ccc2ncccc2c1 | active: 54.5%
COc1ccccc1CNC(=O)C(=O)Nc1ccc(C(=O)N2CCC(C)CC2)cc1 | active: 64.6%
CCOc1ccc(CN(C)Cc2cc(=O)oc3c(C)c(C)ccc23)cc1OC | inconclusive: 56.4%
C[C@@H]1CCCCO[C@H](CN(C)C(=O)Cc2ccccc2)[C@H](C)CN([C@@H](C)CO)C(=O)c2cc(NC(=O)CCC(F)(F)F)ccc2O1 | inconclusive: 43.5%
C#CCOc1coc(COC(=O)c2ccccc2)cc1=O | inconclusive: 37.2%
O=C(CCCCCNC(=O)N1CCn2c1nc1ccccc12)NCc1ccc(F)cc1 | inconclusive: 26.3%
Cc1ccccc1S(=O)(=O)N1CC(=O)N2[C@H](CO)[C@@H](c3ccc(C#Cc4ccccc4)cc3)[C@@H]2C1 | active: 29.1%
O=C(C[C@H]1CC[C@H]2[C@@H](COC[C@@H](O)CN2C(=O)c2ccc3c(c2)OCO3)O1)NCCN1CCCC1 | active: 27.1%
Cc1ccc(S(=O)(=O)Nc2ccc3c(c2)C(=O)N([C@H](C)CO)C[C@@H](C)[C@@H](CN(C)Cc2ccncc2)OCCCC[C@H](C)O3)cc1 | inactive: 2.29%
CC1(C)COC(Cc2ccccc2)=N1 | inconclusive: 31.6%
CC(C)(C)NC(=O)C(c1ccncc1)n1c(=O)c(-c2ccco2)nc2ccccc21 (stereo unspecified) | active: 30.6%
C[C@@H]1CN([C@H](C)CO)C(=O)CCCn2nncc2CO[C@H]1CN(C)S(=O)(=O)c1ccc(Cl)cc1 | inactive: 2.03% and inactive: -2.04%

Structure (SMILES) | CPE inhibition
CC(C)c1cc(-c2cc(C(=O)NCc3ccccc3)on2)nc(NC2CCCC2)n1 | active: 22%
C[C@H](CO)N1C[C@H](C)[C@H](CN(C)C(=O)C2CCCCC2)Oc2cc(-c3ccccc3)ccc2S1(=O)=O | inactive: 15.3%
COc1ccc(C2C3=C(CC(C)(C)CC3=O)N(C)C3=C2C(=O)CC(C)(C)C3)cc1OC | inactive: -1.72%
COc1ccc(Cl)cc1NC(=O)CN(C)C(=O)c1ccc2c(c1)OCCO2 | inconclusive: 37.2%
COc1ccc(S(=O)(=O)N2CCC(C(=O)N(CC(C)C)C3CCS(=O)(=O)C3)CC2)cc1OC (stereo unspecified) | inconclusive: 37.3%
CO[C@H]1CC[C@H]2CCN(C)C(=O)[C@@H](C)[C@@H](OC)CN(C)C(=O)c3cccc(C#N)c3OC[C@@H]1O2 | inactive: 0.629%
CC(C)CCn1c2ccccc2c2cc(CC(N)=O)ccc21 | active: 28.7%
CO[C@H]1CN(C)C(=O)c2cc(NC(=O)C3CCOCC3)ccc2OC[C@H](C)N(Cc2cccnc2)C[C@@H]1C | inactive: 4.98%
C[C@@H]1CN([C@@H](C)CO)C(=O)c2cc(NC(=O)Cn3cnnn3)ccc2O[C@H]1CN(C)S(C)(=O)=O | inactive: -1.82%
CCc1sc(C(=O)NNC(=O)c2cncc(Br)c2)cc1C | inconclusive: 52.1%
COc1ccc(NC(=O)Nc2ccc3c(c2)C(=O)N([C@@H](C)CO)C[C@@H](C)[C@@H](CN(C)C(=O)c2ccccc2)OCCCC[C@H](C)O3)cc1 | inconclusive: 37%
CC1CCCN(C(=O)COc2ccc3c(c2)OCO3)C1 (stereo unspecified) | inconclusive: 30%
O=C(CCCc1ccccc1)Nc1cccc([N+](=O)[O-])c1 | active: 39.9%
CC(C)CCN(CC(=O)NC1CCCC1)C(=O)C(=O)Nc1ccc2c(c1)OCCO2 | inconclusive: 40.1%
CCC1S/C(=N/N=C/c2ccco2)NC1=O (stereo unspecified) | inconclusive: 35.5%
Cc1ccc(S(=O)(=O)N(C)C[C@@H]2OCCCC[C@H](C)Oc3ccc(NC(=O)Nc4ccc(C(F)(F)F)cc4)cc3C(=O)N([C@H](C)CO)C[C@@H]2C)cc1 | active: 23%
CSc1nc(N)nc2c1ncn2CC(=O)NCC(c1ccccc1)c1ccccc1 | inactive: -1.32%
O=C(CSc1nnc(NC(=O)c2ccccc2[N+](=O)[O-])s1)NCC1CCCO1 (stereo unspecified) | inconclusive: 38.8%
CCOC(=O)C1CCN(C2CCN(C(=O)c3oc4c(F)cccc4c3C)CC2)CC1 | inconclusive: 33.6%
COc1ccc(CNC(=O)[C@H](C)NC(=O)[C@@H]2Cc3ccccc3CN2)cc1 | inconclusive: 22.5%
CN(C)c1ccc(-c2n[nH]c(=S)n2-c2ccccc2)cc1 | inconclusive: 33.5%
Cc1[nH]c(C)c(S(=O)(=O)NCCc2ccccc2)c1C(=O)N1CCCC1 | inconclusive: 29.6%
O=C(NCc1cccs1)c1cccc2c(-c3cccnc3)coc12 | inconclusive: 23.6%
Cc1nn(C(C)C(=O)NCCc2cccs2)c(=O)c2nn(-c3ccccc3)c(C)c12 (stereo unspecified) | inconclusive: 26.8%
CC1=NOC(=O)/C1=C\c1ccc(-c2ccc(Cl)c(C(=O)O)c2)o1 | inactive: 1.42%
Cc1ccc(-c2ccc(CN3C(C(C)C)C(=O)N(Cc4cn(Cc5ccco5)nn4)CCS3(=O)=O)cc2)cc1 (stereo unspecified) | active: 28%

Structure (SMILES) | CPE inhibition
COc1ccc(CN2[C@@H](CO)[C@@H]3c4ccccc4NC[C@@H]32)cc1 | active: 66.4%
COCc1ccc(C(=O)N2CCCC(Nc3ccc(C(C)C)cc3)C2)o1 (stereo unspecified) | inconclusive: 33%
CC(=O)NCCNC(=O)c1cc(-c2cccc3ccccc23)nc2ccccc12 | inactive: 2.13%
CC(Nc1ccc(Cl)cc1)C(=O)NN (stereo unspecified) | inconclusive: 23.6%
N#Cc1cccc(-c2ccc3c(c2)[C@H]2[C@H](CCN2S(=O)(=O)c2cccc(F)c2)[C@H](CO)N3)c1 | inactive: 3.03%
CCCCOC(=O)/C(=C/c1cn(C)c2ccccc12)NC(=O)c1ccc(OC)cc1 | inconclusive: 38.3%
COC(=O)N1Cc2ccnnc2CC1c1ccccc1Br (stereo unspecified) | inactive: -2.73%
Cc1noc(C)c1NC(=O)Nc1ccc2c(c1)C(=O)N([C@H](C)CO)C[C@@H](C)[C@H](CN(C)C(=O)Nc1cccc3ccccc13)O2 | inconclusive: 20.5%
CCn1c(SCC(=O)Nc2ccc(N3CCOCC3)cc2)nnc1-c1ccncc1 | inconclusive: 21.6%
Cc1cccc(C)c1NC(=O)CN1C(=O)N(C)Cc2ccccc21 | inconclusive: 31.7%
COc1cccc(NC(=S)N2CCC(C(=O)c3ccc(F)cc3)CC2)c1 | inconclusive: 22.5%
C[C@@H]1CN([C@H](C)CO)S(=O)(=O)c2ccc(C#CC3CC3)cc2O[C@@H]1CN(C)Cc1cccnc1 | inconclusive: 20%
C[C@@H]1CN([C@@H](C)CO)C(=O)c2cc(NS(=O)(=O)c3cccs3)ccc2O[C@@H](C)CCCCO[C@H]1CN(C)Cc1ccccc1 | active: 41.9%
N#Cc1cccc(NC(=O)c2cc(C3CCCCN3C(=O)c3ccccn3)on2)c1 (stereo unspecified) | inconclusive: 24%
Cc1ccc2c(CN3CCN(Cc4ccccc4)CC3)cc(=O)oc2c1C | inconclusive: 20.6%
CCOC(=O)c1ccc(N(CCC2CO2)S(=O)(=O)c2ccc(C)cc2)cc1 (stereo unspecified) | inconclusive: 39.5%
COc1ccc(OC)c(NC(=O)NNC(=O)COc2ccc([N+](=O)[O-])cc2)c1 | inconclusive: 22.8%
O=C(C[C@@H]1CC[C@H](NC(=O)c2ccc3c(c2)OCO3)[C@@H](CO)O1)NCc1ccc(F)cc1 | active: 31.6%
CCCCNC(=O)N1CCN(c2ccccc2OCC)CC1 | inactive: 9.78%
Cc1ccc2nc(-c3ccc(Br)cc3)cc(C(=O)NCC3CCCO3)c2c1 (stereo unspecified) | inconclusive: 49.3%
O=C(CN1C(=O)CCC1=O)Nc1nc(-c2nc3ccccc3s2)cs1 | inactive: -1.66%
CC=Cc1ccc2n(c1=O)C[C@@H]1[C@@H](CO)[C@H](C(=O)NC3Cc4ccccc4C3)[C@H]2N1C(C)=O (mixture of isomers) | active: 31%
O=[N+]([O-])c1ccccc1C(=Nc1ccccc1)c1c(O)cc(O)cc1O | inactive: 2.34%
O=C(c1ccccn1)N1CC(=O)N2[C@H](C1)[C@H](c1ccc(C#CCc3ccccc3)cc1)[C@@H]2CO | active: 54%

From PubChem BioAssay AID651640 (Broad Institute, 2012)
